Here are results for 2 molecules from PMC5618690, “Structural and functional analysis of two small leucine-rich repeat proteoglycans, fibromodulin and chondroadherin” (Matrix Biology, 2017).

The target of experiment [1] is human fibromodulin with ten N-terminal tyrosines mutated to serine (human) (UniProt Q06828). Description: condition: injected at 10 mg/ml; peak protein concentration at least 50 μM; SEC-MALS; 10 mg/ml injected onto Superdex 75 10/30; 150 mM NaCl, 20 mM HEPES pH 7.5; 0.1 ml/min; peak protein concentration estimated at least 50 μM; both purified.
Experiment [2] concerns the target human chondroadherin (human) (UniProt O15335). The description is as above.

No constants are given. Whether binding was seen depends on the method and setting.

B1: human fibromodulin with ten N-terminal tyrosines mutated to serine (protein, UniProt Q06828 19-376)
chain: GALAQYEDDPHWWFHYLRSQQSTSSDPSDPSPSETSEPSPSGVDEGPASTSGSPSPPDPRDCPQECDCPPNFPTAMYCDNRNLKYLPFVPSRMKYVYFQNNQITSIQEGVFDNATGLLWIALHGNQITSDKVGRKVFSKLRHLERLYLDHNNLTRMPGPLPRSLRELHLDHNQISRVPNNALEGLENLTALYLQHNEIQEVGSSMRGLRSLILLDLSYNHLRKVPDGLPSALEQLYMEHNNVYTVPDSYFRGAPKLLYVRLSHNSLTNNGLASNTFNSSSLLELDLSYNQLQKIPPVNTNLENLYLQGNRINEFSISSFCTVVDVVNFSKLQVLRLDGNEIKRSAMPADAPLCLRLASLIEI
modifications: N-linked glycans at Asn127, Asn166, Asn201, Asn291
With B1, in experiment [1], the binding entry was “no binding”.

B2: human chondroadherin (protein, UniProt O15335 23-359)
chain: APLACPQNCHCHSDLQHVICDKVGLQKIPKVSEKTKLLNLQRNNFPVLAANSFRAMPNLVSLHLQHCQIREVAAGAFRGLKQLIYLYLSHNDIRVLRAGAFDDLTELTYLYLDHNKVTELPRGLLSPLVNLFILQLNNNKIRELRAGAFQGAKDLRWLYLSENALSSLQPGALDDVENLAKFHVDRNQLSSYPSAALSKLRVVEELKLSHNPLKSIPDNAFQSFGRYLETLWLDNTNLEKFSDGAFLGVTTLKHVHLENNRLNQLPSNFPFDSLETLALTNNPWKCTCQLRGLRRWLEAKASRPDATCASPAKFKGQHIRDTDAFRSCKFPTKRSKKAGRH
In the case of B2, in experiment [2], the binding result is recorded as “no binding”.
